{
  "sequences": {"note": "Amino acid sequences for entries named in this document (tags omitted). Residues count along the entry.", "UniProt P08637, 17-208": "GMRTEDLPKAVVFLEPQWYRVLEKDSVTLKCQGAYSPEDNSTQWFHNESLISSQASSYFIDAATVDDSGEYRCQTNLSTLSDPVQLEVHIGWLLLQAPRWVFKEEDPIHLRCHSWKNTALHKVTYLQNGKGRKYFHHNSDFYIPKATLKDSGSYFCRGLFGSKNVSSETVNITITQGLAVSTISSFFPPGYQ"},
  "source": "patent US20140039042",
  "target": "CD16α (FcγRIIIa) V158 allotype, CD16α-6His (UniProt P08637)",
  "assay": "SELEX",
  "settings": "purified recombinant protein, protein details: 6His",
  "key": {"[1]": {"settings": "listed as binding specifically to CD16, single-stranded DNA"}, "[2]": {"settings": "cell SELEX, listed as binding specifically to CD16, single-stranded DNA"}, "[3]": {"settings": "mRfY: 2'-OMe purines, 2'-F pyrimidines, mRfY, listed as CD16 specific"}, "[4]": {"settings": "rRfY: 2'-OH purines, 2'-F pyrimidines"}},
  "note": "For at least one entry, the source does not settle the construct or the ends of the probe.",
  "data": [
    {"sequence": "GGAGGGAAAAGTTATCAGGCAACGGGAAGAAATGTCGAAACCCTTGAAAGGTCACGGACTGATTAGTTTTGGAGTACTCGCTCC [CLN0019]", "values": [
      {"measurement": "selection result", "setting": "[1]", "value": "selected"}
    ]},
    {"sequence": "GGAGGGAAAAGTTATCAGGCACGGACTCGCAAAAGGTGGAACAGGAGTGGGCCCCGCGGCGATTAGTTTTGGAGTACTCGCTCC [CLN0118]", "values": [
      {"measurement": "selection result", "setting": "[2]", "value": "selected"}
    ]},
    {"sequence": "GGAGGGAAAAGTTATCAGGCAGGCGCGAGAAATATCGAAACACCGGACGGTCGCGACGCTGATTAGTTTTGGAGTACTCGCTCC [CLN0122]", "values": [
      {"measurement": "selection result", "setting": "[2]", "value": "selected"}
    ]},
    {"sequence": "GGAGGGAAAAGTTATCAGGCAGGTGTAGGCCCTGTGGTGATGAATCGCGTGTCGAGGGGTGATTAGTTTTGGAGTACTCGCTCC [CLN0027]", "values": [
      {"measurement": "selection result", "setting": "[1]", "value": "selected"}
    ]},
    {"sequence": "GGAGGGAAAAGTTATCAGGCAGTGTAGGGAGCGGAGTAGGCAGGCGTAGGTCCTGTGGTGATTAGTTTTGGAGTACTCGCTCC [CLN0125]", "values": [
      {"measurement": "selection result", "setting": "[2]", "value": "selected"}
    ]},
    {"sequence": "GGAGGGAAAAGTTATCAGGCATAGGCAACGGGGATGATAACCAGTTGGGGTGGGACGAGGGATTAGTTTTGGAGTACTCGCTCC [CLN0128]", "values": [
      {"measurement": "selection result", "setting": "[2]", "value": "selected"}
    ]},
    {"sequence": "GGAGGGAAAAGTTATCAGGCCAAGCACAAGAACTTTCAAAACGCAGAATGCTGGGCTTGGGATTAGTTTTGGAGTACTCGCTCC [CLN0016]", "values": [
      {"measurement": "selection result", "setting": "[1]", "value": "selected"}
    ]},
    {"sequence": "GGAGGGAAAAGTTATCAGGCCACCCGTCAGGGGTTCGTTGTGAGGAGAGAGGGTTGGGCCGATTAGTTTTGGAGTACTCGCTCC [CLN0120]", "values": [
      {"measurement": "selection result", "setting": "[2]", "value": "selected"}
    ]},
    {"sequence": "GGAGGGAAAAGTTATCAGGCCAGAACAAAGCGGGAGAATTATGAAAACGCGGAACGCCACGATTAGTTTTGGAGTACTCGCTCC [CLN0025]", "values": [
      {"measurement": "selection result", "setting": "[1]", "value": "selected"}
    ]},
    {"sequence": "GGAGGGAAAAGTTATCAGGCCAGACGAGAATTTGGAAAACGCGGAACGCCGTCTGGTGTGGATTAGTTTTGGAGTACTCGCTCC [CLN0017]", "values": [
      {"measurement": "selection result", "setting": "[1]", "value": "selected"}
    ]},
    {"sequence": "GGAGGGAAAAGTTATCAGGCCAGCCACTGGAGAAAGTAAGAAACGCAGAATGCCCAGTGGGATTAGTTTTGGAGTACTCGCTCC [CLN0032]", "values": [
      {"measurement": "selection result", "setting": "[1]", "value": "selected"}
    ]},
    {"sequence": "GGAGGGAAAAGTTATCAGGCCCGGGAGAATTAGATTAAAACGCGGAACGCCCCGTGCCCGGATTAGTTTTGGAGTACTCGCTCC [CLN0124]", "values": [
      {"measurement": "selection result", "setting": "[2]", "value": "selected"}
    ]},
    {"sequence": "GGAGGGAAAAGTTATCAGGCCGAGTGAAAGAGGCAGGTGTAGGTCCCGTGGAGGTCAGGTGATTAGTTTTGGAGTACTCGCTCC [CLN0121]", "values": [
      {"measurement": "selection result", "setting": "[2]", "value": "selected"}
    ]},
    {"sequence": "GGAGGGAAAAGTTATCAGGCCGCAGCGGAGAAATTTCGAAACCCAGGATGGCCGCGAGGTGATTAGTTTTGGAGTACTCGCTCC [CLN0028]", "values": [
      {"measurement": "selection result", "setting": "[1]", "value": "selected"}
    ]},
    {"sequence": "GGAGGGAAAAGTTATCAGGCGACGGGACGAAAAACGGTTGGATGAGGTTGGTTGGGTGTGGATTAGTTTTGGAGTACTCGCTCC [CLN0029]", "values": [
      {"measurement": "selection result", "setting": "[1]", "value": "selected"}
    ]},
    {"sequence": "GGAGGGAAAAGTTATCAGGCGACGTTAAGCTAGCAGGTGTTAGGTCCCGTGGTGATGAATGATTAGTTTTGGAGTACTCGCTCC [CLN0023]", "values": [
      {"measurement": "selection result", "setting": "[1]", "value": "selected"}
    ]},
    {"sequence": "GGAGGGAAAAGTTATCAGGCGCAAGTATGAGCGCAGGAGTTAGGTCCCGTGGCGATGGGTGATTAGTTTTGGAGTACTCGCTCC [CLN0021]", "values": [
      {"measurement": "selection result", "setting": "[1]", "value": "selected"}
    ]},
    {"sequence": "GGAGGGAAAAGTTATCAGGCGCTAAGAGAAATATCGAAACCCTGGATAGGCTGAGTGACTGATTAGTTTTGGAGTACTCGCTCC [CLN0026]", "values": [
      {"measurement": "selection result", "setting": "[1]", "value": "selected"}
    ]},
    {"sequence": "GGAGGGAAAAGTTATCAGGCGGCAGAAGAAATATCGAAACCCAGAATGGTCGGCCAGGCGGATTAGTTTTGGAGTACTCGCTCC [CLN0015]", "values": [
      {"measurement": "selection result", "setting": "[1]", "value": "selected"}
    ]},
    {"sequence": "GGAGGGAAAAGTTATCAGGCGGCCAGAGAAATGTCGAAACCCGGTAACGGATGGTAAGCTGATTAGTTTTGGAGTACTCGCTCC [CLN0031]", "values": [
      {"measurement": "selection result", "setting": "[1]", "value": "selected"}
    ]},
    {"sequence": "GGAGGGAAAAGTTATCAGGCGGCGTTGTCGGGCGCAGGTGTAGGCCTCGTGGTGGTGGGTGATTAGTTTTGGAGTACTCGCTCC [CLN0126]", "values": [
      {"measurement": "selection result", "setting": "[2]", "value": "selected"}
    ]},
    {"sequence": "GGAGGGAAAAGTTATCAGGCGGGAGGAGAATTAATAAAAACCCGGGACGGCCGACGGGATGATTAGTTTTGGAGTACTCGCTCC [CLN0024]", "values": [
      {"measurement": "selection result", "setting": "[1]", "value": "selected"}
    ]},
    {"sequence": "GGAGGGAAAAGTTATCAGGCGGGGGACAAGGGTCGGGTATGGGCGCCTCGAGAACTGGGTGATTAGTTTTGGAGTACTCGCTCC [CLN0127]", "values": [
      {"measurement": "selection result", "setting": "[2]", "value": "selected"}
    ]},
    {"sequence": "GGAGGGAAAAGTTATCAGGCGTAGGTGGGGGACTGGGGACGGGTATGGGCACACGGTATGATTAGTTTTGGAGTACTCGCTCC [CLN0022]", "values": [
      {"measurement": "selection result", "setting": "[1]", "value": "selected"}
    ]},
    {"sequence": "GGAGGGAAAAGTTATCAGGCTAAACCCCAAAACAGTGCAACTAGGTGTAGGTCCCGTGGTGATTAGTTTTGGAGTACTCGCTCC [CLN0030]", "values": [
      {"measurement": "selection result", "setting": "[1]", "value": "selected"}
    ]},
    {"sequence": "GGAGGGAAAAGTTATCAGGCTGCGGCGAGAAATGTCGAAACGGTGAAACCCGCCATGCGTGATTAGTTTTGGAGTACTCGCTCC [CLN0119]", "values": [
      {"measurement": "selection result", "setting": "[2]", "value": "selected"}
    ]},
    {"sequence": "GGAGGGAAAAGUUAUCAGGCAAUGACAUAUUUCUUAUAUCGGGUUUGGAGUGCCUUGCCUAGAUUAGUUUUGGAGUACUCGCUCC [CLN0072]", "values": [
      {"measurement": "selection result", "setting": "[3]", "value": "selected"}
    ]},
    {"sequence": "GGAGGGAAAAGUUAUCAGGCAAUGACAUUUUCUUAUAUCGGGUUUGGAGUGCCCUGCCUAGAUUAGUUUUGGAGUACUCGCUCC [CLN0076]", "values": [
      {"measurement": "selection result", "setting": "[3]", "value": "selected"}
    ]},
    {"sequence": "GGAGGGAAAAGUUAUCAGGCACGUAGUGGGAGGACGCGGAAAGUCGAGCGCAUUAGGUGGGAUUAGUUUUGGAGUACUCGCUCC [CLN0059]", "values": [
      {"measurement": "selection result", "setting": "[4]", "value": "selected"}
    ]},
    {"sequence": "GGAGGGAAAAGUUAUCAGGCACGUAGUUGAAGGACUUUUGGGUUGAGCGGACUAGGUGUAGAUUAGUUUUGGAGUACUCGCUCC [CLN0063]", "values": [
      {"measurement": "selection result", "setting": "[4]", "value": "selected"}
    ]},
    {"sequence": "GGAGGGAAAAGUUAUCAGGCAGUGAGAGGUUAAAGGAAGGGUGCGUUGUCAAAGGCUGGUGAUUAGUUUUGGAGUACUCGCUCC [CLN0048]", "values": [
      {"measurement": "selection result", "setting": "[4]", "value": "selected"}
    ]},
    {"sequence": "GGAGGGAAAAGUUAUCAGGCAUAGAGGUGAGAGGAAGGGUGUGUUGUAUGUUGAUAACGAGAUUAGUUUUGGAGUACUCGCUCC [CLN0057]", "values": [
      {"measurement": "selection result", "setting": "[4]", "value": "selected"}
    ]},
    {"sequence": "GGAGGGAAAAGUUAUCAGGCAUGUAUUGCGGAUGAUUUUGUAUUUAAUGUGUAUGCCUCGGAUUAGUUUUGGAGUACUCGCUCC [CLN0077]", "values": [
      {"measurement": "selection result", "setting": "[3]", "value": "selected"}
    ]},
    {"sequence": "GGAGGGAAAAGUUAUCAGGCCAGAGAAACAUAAACCAUAAACGCAGAAGCUGGCUGUGAGGAUUAGUUUUGGAGUACUCGCUCC [CLN0061]", "values": [
      {"measurement": "selection result", "setting": "[4]", "value": "selected"}
    ]},
    {"sequence": "GGAGGGAAAAGUUAUCAGGCCCGGCUUCGAAGGGUGAAUACUGAGCGGAAGUGAGAGGAAGAUUAGUUUUGGAGUACUCGCUCC [CLN0051]", "values": [
      {"measurement": "selection result", "setting": "[4]", "value": "selected"}
    ]},
    {"sequence": "GGAGGGAAAAGUUAUCAGGCCUAGUGUUAUGACCCUAGAAAUAGAUGAGUUGAGAGGUCGGAUUAGUUUUGGAGUACUCGCUCC [CLN0054]", "values": [
      {"measurement": "selection result", "setting": "[4]", "value": "selected"}
    ]},
    {"sequence": "GGAGGGAAAAGUUAUCAGGCGCAAGGAGGUAAAAGGAAGGGUGGUUGCUUGGCGCUAACGGAUUAGUUUUGGAGUACUCGCUCC [CLN0052]", "values": [
      {"measurement": "selection result", "setting": "[4]", "value": "selected"}
    ]},
    {"sequence": "GGAGGGAAAAGUUAUCAGGCGCAUGUGAAGGGACCAAUCCGAGCGACAUGGUGCGGGAUAGAUUAGUUUUGGAGUACUCGCUCC [CLN0055]", "values": [
      {"measurement": "selection result", "setting": "[4]", "value": "selected"}
    ]},
    {"sequence": "GGAGGGAAAAGUUAUCAGGCGCGGUGGAAGGCUGAACAUUGGCGAGCGCAUCGGAGAUCUGAUUAGUUUUGGAGUACUCGCUCC [CLN0060]", "values": [
      {"measurement": "selection result", "setting": "[4]", "value": "selected"}
    ]},
    {"sequence": "GGAGGGAAAAGUUAUCAGGCGUAAGCGAAGGGUCAAAAAGGCCGAGCGGUUUAGGCAUCAGAUUAGUUUUGGAGUACUCGCUCC [CLN0049]", "values": [
      {"measurement": "selection result", "setting": "[4]", "value": "selected"}
    ]},
    {"sequence": "GGAGGGAAAAGUUAUCAGGCGUAAUGGAAGGGCGUUAUGAACGCUGAGCGCAUUAGGGGUGAUUAGUUUUGGAGUACUCGCUCC [CLN0053]", "values": [
      {"measurement": "selection result", "setting": "[4]", "value": "selected"}
    ]}
  ]
}
